Data on one compound can be found in patent US9750242B2, “Nitrite salts as poisons in baits for omnivores” (priority 2007, dated 2017).

This data set deals with feral pigs. Put plainly: Bait delivery trial: sodium nitrite to feral pigs in food. In kind it is in vivo, feral pig. As to the method:
The trials were conducted in October 2005 and June 2006. Both trials were designed to test the hypothesis that SN would be lethal to feral pigs when they consumed the toxin freely in food. […] Before the toxin trial, each feral pig was pre-fed daily for 10 days with the bait substrate they were to receive during the toxin trial (bait or dry wheat). During the trial, six feral pigs acted as controls, receiving no toxin, but receiving bait substrate (carrier material). Three of these received wheat and three received the manufactured baits of the type described in Example 2. The remaining 18 feral pigs were divided into three groups of six animals. Three pigs in each group received 250 or 500 g (depending on body size and therefore total toxic dose to deliver) of wheat and the other three received one or two the baits (again, amount of toxin dependent). […] Feral pigs were observed every 15 minutes for 6 hours, then hourly for 6 hours, then at euthanasia 12 hours after clinical signs developed (if they remained alive). Each dose rate contained six animals divided evenly amongst two bait carrier materials. Six controls were used.

As to `O=NO` [SN, Sodium nitrite], the palatability in wheat result by setting is: (135 mgkg^-1, toxin mixed with honey in a clump in wheat) “two from three feral pigs refused any toxin”; (higher doses, toxin mixed throughout the wheat with a tablespoon of honey) “all feral pigs consumed grain and toxin readily”. For the setting “most animals”, the “time to completely consume all bait material” value is 10 to 30 min.
